About 210 (0.4%) of roughly 52,000 sequences were called active.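 The calls were made as follows: active = gene whose silencing raises cell survival under the drug, median off-target-corrected z-score across its silencing RNAs 2 or more; inactive = the rest.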 Some of the results follow.

The test is described as follows: Resistance to Poly (ADP-Ribose) Polymerase inhibitor: Gene Identification via Genome-wide siRNA Screen. The following applies: mouse BRCA2 R2336H ES cells, olaparib, CellTiter-Glo viability; stronger effect = higher value. A digest of the protocol:
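Genome-wide siRNA screen (3 siRNAs/gene, 20 nM) in mouse ES cells carrying hypomorphic BRCA2 R2336H; olaparib 500 nM added 48 h post-transfection, CellTiter-Glo viability 72 h later. Normalized to plate-median negative control; MAD z-scores, gene median, seed-adjusted.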
Turning to GGAAGACUUGGCUACACAATT against Rab40c, the z-score was inactive: -0.131.
As for “GGACCUCAAAGACAACCGGTT against 2410018C20Rik”, the figure is inactive: 0.964; as for CCUCCUCUCUUACUACGAGTT against Nab2, inactive: 0.194.
GCUAAUUUCUUGAGAAGCGTT against Dek: the z-score was inactive: 0.0835.
With GGAGUGACACUAUUGGGAATT against LOC330776 the figure was inactive: -1.47.
Regarding “GGCAAGACUAUGAAUAUAATT against 1810047C23Rik”, the z-score is inactive: -0.686.
“GGGCAUUUGUGAAAGAACUTT against C130032J12Rik”: the z-score is inactive: 0.683.
For the sequence GGAACACCAUAUGAAGGCGTT against Ube2h, the z-score is inactive: -0.245.
With GCUGCUGAAUUGAAUCAUCTT against Krtap4-7, the z-score is inactive: 0.554.
Consider GGGUUGUCCUGAACUUUAATT against Npr1, for which the z-score is inactive: -0.454.
Take GCCUAGGGUUUCUGAAAUGTT against Rpe: the z-score was inactive: 0.601.
Consider “GCAAGUGUGGUUAAUCUGCTT against A930021O22”, for which the z-score is inactive: 1.
For the sequence “GGACACUUUACUUUUGAGATT against 4930404J24Rik”, the z-score was inactive: 0.147.
Regarding “GGCACAUUCAUAGAACAAGTT against 1700022C21Rik”, the z-score is inactive: 0.191.
As to GGAGCAAUGUGUUUUCUCUTT against Ppnr, the z-score is inactive: 0.747.
In the case of CCUCGUCUUAUUGAGGCUCTT against Dhrs1, the z-score is inactive: 0.15.
Consider GCCAAUUAGCAUAUUUCAUTT against Slc16a4, for which the z-score is inactive: 0.0709.
On to GGAGCCUAUACUGAUUUAUTT against Tomm7, for which the z-score is inactive: 0.467.
As for GGUAUGAUCAAUGACUUACTT against Serpine1, the z-score was inactive: -0.786.
Consider GGUUUGCUUUUCGUAUCUATT against Ppp3r1, for which the z-score was inactive: -0.147.
Turning to “GGAUGAAGGCUUCUCUGCUTT against 1700023M09Rik”, the z-score is inactive: -1.93.
Consider “GCCCUCAUCAAUUCAACCCTT against F730023N20”, for which the z-score was inactive: 1.23.
GCAAAUCAGUCUAUCGCUGTT against Mcpt8: the z-score was inactive: -0.725.
With “GCAUUUGAAAUAUUCGCUATT against 4933439A12Rik”, the z-score was inactive: 1.2.
Turning to “GGUACACACGGACAAACGCTT against D9Ertd280e”, the z-score is inactive: -0.485.
Regarding GCUAGAACAGAAAAGAACCTT against Kcnb1, the z-score was inactive: -0.0625.
As for GGAGCGAUCUGAAAAUUUGTT against Rasip1, the z-score was inactive: 1.29.
Regarding “CCGACUAAGAAUCAGAGAATT against 2700091N06Rik”, the z-score is inactive: 0.591.
For the sequence GGGUGACAUGGUGACCAUCTT against Matk, the z-score was inactive: 0.0832.
Take GGAACUAGAGCUGAUAAUATT against Smurf1: the z-score is inactive: -0.727.
Turning to GCAACUAUAGUGCUCUCACTT against Ggtl3, the z-score was inactive: -0.414.
Take “GGGUCAGACAGGUAUUAUATT against Cocoacrisp”: the z-score is inactive: 1.43.
Turning to GGAGCUGCUCCCUCUAAUATT against Cbr1, the z-score is inactive: 2.41.
Turning to GGAGGUGGAACUGCUGUAUTT against BC064033, the z-score was inactive: 0.49.
“CCCAGACAUAUUUUACUCGTT against C230043N17Rik”: the z-score was inactive: -0.763.
As for “CCAGGUGACACCCAUCAUUTT against 0710001P18Rik”, the z-score was inactive: -0.673.
In the case of CCCACUCCAAACAUCUAAATT against Gadd45b, the z-score is inactive: 0.111.
As to GGCUUUAUCCUGUCUGUGGTT against Slc10a2, the z-score is inactive: -1.53.
As for GGAAGUUGAUGAAUUCUUATT against Raet1a, the figure is inactive: -0.207; as for “GGUUUUCUGGAAGUACUUGTT against 4931427F14Rik”, inactive: 1.72; as for GGUUGGUGCUGGCUAACAUTT against Gabra2, inactive: 1.55.
Turning to GGAUAACACCGCCAUUCCATT against Csnk, the z-score was inactive: -1.31.
On to GGAGUUCAACUAGAUGUGGTT against Bcl2l13, for which the z-score was inactive: 1.55.
For the sequence GGUAUUUCACUGGAAGACUTT against Dnmt2, the z-score is inactive: 1.5.
As for GGCACUCAGUAACUGCAUGTT against Gababrbp, the figure is inactive: -0.611; as for “GGCUGUUACAAGAACGUAGTT against 5031434C07Rik”, inactive: 0.0532.
As for GGAAUAAAUGUCGUCCCUUTT against Mlp, the figure is inactive: -1.33.
With CCAGUAGCAGAUCAACUCATT against Mad the figure was inactive: -1.37; with “CCCUGCAUUGCCUUAUAUCTT against 2610318G18Rik”, inactive: 0.555.
For “GGAUUAUGGACCUCUUGGUTT against 4930595M18Rik”, the z-score is inactive: -0.329.
Take GCUGUAAAGUAAGUGUAGUTT against BC016198: the z-score was inactive: 0.307.
Turning to CCCGAUGAGAGACAUUUUATT against Rrm2, the z-score was inactive: -3.16.
With GCGAAAGAUAUUGUGGAAGTT against Dixdc1 the figure was inactive: -0.7; with GAGUAGGAAUUAGAAUGAUTT against Tm4sf10, inactive: 0.000742.
For GGGCCAACCAACGAAAUGUTT against Ube1y1, the z-score was inactive: -2.32.
With GCUCUAUUCUCCAACUCUGTT against Pof1b, the z-score was inactive: -0.364.
With GGGUGCUUAAUAAACAUAATT against Slc22a8 the figure was inactive: 1.12; with GGUACUCAAGGUAGGCUGCTT against Oasl1, inactive: -0.501.
With GCAUGCCUAAAUUUGGGACTT against Fyb, the z-score was inactive: -0.685.
With “GGCAAAGCUGUCUUAGAGGTT against 1110005A03Rik”, the z-score was inactive: 0.34.
As for GGAUAAUGUGGAUAGAACUTT against Slco1a5, the figure is inactive: 0.845; as for CGGCUACAACACAUACGCCTT against Fgf22, inactive: -0.355.
As for “GGCUUUUGGAGAAAAAGGATT against D10Ertd438e”, the figure is inactive: 1.18; as for “GGGCAAAAUAUGAAAUACATT against D730048I06Rik”, inactive: -0.664; as for CCCUGUAAAGAUCGAGAAGTT against Zfp296, inactive: 1.01.

The values above are taken from PubChem BioAssay AID1347423 (Functional Genomics Laboratory (NCATS/FGL), 2020).
